The list shows only some results of the screen, not a fair sample: it is rich in T/C values a quarter to a half above the control, in often repeated tests (any T/C) and in doses without a T/C. Further doses and runs are listed elsewhere. T/C gives the treated animals as a percentage of the vehicle group. Some doses have a count of surviving animals in place of a T/C: the source files T/C as zero there, which appears to mark a toxic dose or a test without result, not a measured value. Some survivor counts are full or nearly so, which does not show that the dose was tolerated: the source hardly ever lists a survival T/C far under the control, and the zero likely stands for such cases as well. Survivors were counted at the toxicity check, usually on the fifth day, unless a day is given; later deaths do not show. Schedule codes are those of the source, taken here to give the interval after Q, in days (D) or hours (H), and the number of doses after X. Where survival is the endpoint, this PubChem deposit counts one and a half times the control or more as active, and values a quarter to a half above the control carry no call in these data; other NCI protocols may use other cut-offs. Some T/C values are followed by the survivors on the day toxicity was checked, most often the fifth; where none is given, no animal had died by that day.
System: P388 leukemia ip, CD2F1 mice, survival T/C
Experiment: NCI In Vivo Anticancer Drug Screen. Data for tumor model P388 Leukemia (intraperitoneal) in CD2F1 (CDF1) mice
Conditions: T/C endpoint: median survival time, higher T/C = longer survival
[1] = dose: 100.0 mg/kg/injection, schedule: Q01DX009 (ip), vehicle: saline with Tween-80
[2] = dose: 200.0 mg/kg/injection, schedule: Q01DX009 (ip), vehicle: saline
[3] = dose: 200.0 mg/kg/injection, schedule: Q01DX005 (ip), vehicle: saline with Tween-80
[4] = dose: 240.0 mg/kg/injection, schedule: Q01DX005 (ip), vehicle: saline with Tween-80
[5] = dose: 50.0 mg/kg/injection, schedule: Q01DX005 (ip), vehicle: saline with Tween-80
[6] = dose: 100.0 mg/kg/injection, schedule: Q01DX005 (ip), vehicle: saline with Tween-80
[7] = dose: 200.0 mg/kg/injection, schedule: Q01DX009 (ip), vehicle: Klucel (hydroxypropylcellulose) (HPC)
[8] = dose: 60.0 mg/kg/injection, schedule: Q01DX005 (ip), vehicle: saline with Tween-80
[9] = dose: 120.0 mg/kg/injection, schedule: Q01DX005 (ip), vehicle: saline with Tween-80

Structure (SMILES): COC(=O)/C=C(\Br)C(=O)OC
- survivor count (dose: 12.5 mg/kg/injection, schedule: Q01DX009 (ip), vehicle: saline with Tween-80): 0 of 6
- survivor count (dose: 25.0 mg/kg/injection, schedule: Q01DX009 (ip), vehicle: saline with Tween-80): 0 of 6
- survivor count (dose: 50.0 mg/kg/injection, schedule: Q01DX009 (ip), vehicle: saline with Tween-80): 0 of 6
- survivor count [1]: 0 of 6
- survivor count (dose: 200.0 mg/kg/injection, schedule: Q01DX009 (ip), vehicle: saline with Tween-80): 0 of 6

Structure (SMILES): O=P(c1ccccc1)(c1ccccc1)c1ccccc1.[CH3][Sn]([Cl])([Cl])[c]1ccccc1
- T/C (dose: 100.0 mg/kg/injection, schedule: Q04DX003 (ip), vehicle: saline): 130 % of control [5 of 6 alive]
- survivor count (dose: 200.0 mg/kg/injection, schedule: Q04DX003 (ip), vehicle: saline): 0 of 6
- survivor count (dose: 400.0 mg/kg/injection, schedule: Q04DX003 (ip), vehicle: saline): 0 of 6

Structure (SMILES): ONc1ccccc1C(F)(F)F
- survivor count [2]: 0 of 6

Structure (SMILES): CCN(CC)CCN=c1c(C)nc(C#N)c(N)n1O
- T/C (dose: 40.0 mg/kg/injection, schedule: Q01DX009 (ip), vehicle: saline with Tween-80): 126 % of control

Structure (SMILES): O=C1c2ccccc2CC1CS(=O)(=O)CC1Cc2ccccc2C1=O (centres undefined)
- survivor count (dose: 100.0 mg/kg/injection, schedule: Q04DX002 (ip), vehicle: saline): 6 of 6
- survivor count (dose: 200.0 mg/kg/injection, schedule: Q04DX002 (ip), vehicle: saline): 6 of 6

Structure (SMILES): Cc1cc[n+](C2=C(Nc3ccccc3)C(=O)c3ccccc3C2=O)cc1
- survivor count [3]: 0 of 6

Structure (SMILES): CCCCCOC(=O)c1ccccc1OP(=O)(N(C)C)N(C)C
- survivor count (dose: 200.0 mg/kg/injection, schedule: Q01DX005 (ip), vehicle: saline): 0 of 6

Structure (SMILES): CCCCCCCCC#CCO
- survivor count [4]: 3 of 6

Structure (SMILES): CCOC(=O)NSCC
- survivor count (dose: 50.0 mg/kg/injection, schedule: Q01DX009 (ip), vehicle: saline): 4 of 6
- survivor count (dose: 100.0 mg/kg/injection, schedule: Q01DX009 (ip), vehicle: saline): 2 of 6
- survivor count [2]: 0 of 6

Structure (SMILES): CCCC1CCCCN1C (centres undefined)
- survivor count (dose: 25.0 mg/kg/injection, schedule: Q01DX005 (ip), vehicle: saline with Tween-80): 4 of 6
- survivor count [5]: 0 of 6
- survivor count [6]: 0 of 6
- survivor count [3]: 0 of 6

Structure (SMILES): N#Cc1ccc(Br)cc1[N+](=O)[O-]
- survivor count (dose: 6.25 mg/kg/injection, schedule: Q01DX009 (ip), vehicle: Klucel (hydroxypropylcellulose) (HPC)): 6 of 6
- survivor count (dose: 12.5 mg/kg/injection, schedule: Q01DX009 (ip), vehicle: Klucel (hydroxypropylcellulose) (HPC)): 6 of 6
- survivor count (dose: 25.0 mg/kg/injection, schedule: Q01DX009 (ip), vehicle: Klucel (hydroxypropylcellulose) (HPC)): 4 of 6

Structure (SMILES): O=C(NNC(=O)c1ccncc1)Nc1cccc(Cl)c1
- survivor count [7]: 5 of 6

Structure (SMILES): Cc1ccc(Cl)cc1NC(=O)Nc1nccs1
- survivor count [7]: 5 of 6

Structure (SMILES): C[N+](C)(C)CC[N+](C)(C)Cc1cccc2ccccc12
- survivor count [2]: 1 of 6

Structure (SMILES): COC(=O)C1=C(N)N2C/C(=C/c3cccs3)SC2=C(C(=O)OC)C1c1cccs1 (centres undefined)
- survivor count [6]: 5 of 5
- survivor count [3]: 5 of 5

Structure (SMILES): Fc1ccc2nc3ccccc3c(SCCNCCSc3c4ccccc4nc4ccc(F)cc34)c2c1
- survivor count [4]: 6 of 6

Structure (SMILES): NC1=C(O)C(=O)C(c2ccc3c(c2)CCC3)O1 (centres undefined)
- survivor count (dose: 240.0 mg/kg/injection, schedule: Q01DX005 (ip), vehicle: Klucel (hydroxypropylcellulose) (HPC)): 6 of 6

Structure (SMILES): Cc1ccc(/C=C2/C(=O)N(c3ccccc3)N=C2c2ccccc2)cc1
- survivor count (dose: 7.5 mg/kg/injection, schedule: Q01DX005 (ip), vehicle: saline): 5 of 6
- survivor count [8]: 0 of 6
- survivor count [9]: 2 of 6
- survivor count [4]: 0 of 6

Structure (SMILES): C=C1C(=O)O[C@@H]2C[C@@]3(C)CCC[C@H](C)C3=C[C@H]12 (tested in a mixture with another compound)
- survivor count (dose: 240.0 mg/kg/injection, schedule: Q01DX005 (ip), vehicle: saline + alcohol): 0 of 6

Structure (SMILES): CN(C)CC(C)(CN(C)C)C(=O)/C=C/c1ccc(Cl)c(Cl)c1
- survivor count (dose: 15.0 mg/kg/injection, schedule: Q01DX005 (ip), vehicle: saline with Tween-80): 6 of 6
- survivor count (dose: 30.0 mg/kg/injection, schedule: Q01DX005 (ip), vehicle: saline with Tween-80): 2 of 6
- survivor count [8]: 0 of 6
- survivor count [9]: 0 of 6
- survivor count [4]: 0 of 6

Structure (SMILES): CC1CN1P(=S)(N1CCCC1)N1CC1C (centres undefined)
- T/C (dose: 16.0 mg/kg/injection, schedule: Q01DX009 (ip), vehicle: saline with Tween-80): 136 % of control
- T/C (dose: 32.0 mg/kg/injection, schedule: Q01DX009 (ip), vehicle: saline with Tween-80): 145 % of control
- T/C (dose: 32.0 mg/kg/injection, schedule: Q04DX003 (ip), vehicle: saline with Tween-80): 130 % of control
- T/C (dose: 44.0 mg/kg/injection, schedule: Q01DX009 (ip), vehicle: saline with Tween-80): 131 % of control
- T/C (dose: 64.0 mg/kg/injection, schedule: Q01DX009 (ip), vehicle: saline with Tween-80): 145 % of control
- survivor count (dose: 128.0 mg/kg/injection, schedule: Q01DX009 (ip), vehicle: saline with Tween-80): 6 of 6
- T/C (dose: 128.0 mg/kg/injection, schedule: Q04DX003 (ip), vehicle: saline with Tween-80): 135 % of control
- T/C (dose: 132.0 mg/kg/injection, schedule: Q04DX003 (ip), vehicle: saline with Tween-80): 145 % of control
- survivor count (dose: 256.0 mg/kg/injection, schedule: Q01DX009 (ip), vehicle: saline with Tween-80): 6 of 6
- survivor count (dose: 300.0 mg/kg/injection, schedule: Q04DX003 (ip), vehicle: saline with Tween-80): 6 of 6

Structure (SMILES): CC1(C)CNC(=S)O1
- survivor count (dose: 50.0 mg/kg/injection, schedule: Q01DX009 (ip), vehicle: Klucel (hydroxypropylcellulose) (HPC)): 0 of 6
- survivor count (dose: 100.0 mg/kg/injection, schedule: Q01DX009 (ip), vehicle: Klucel (hydroxypropylcellulose) (HPC)): 0 of 6
- survivor count [7]: 0 of 6
- survivor count (dose: 400.0 mg/kg/injection, schedule: Q01DX009 (ip), vehicle: Klucel (hydroxypropylcellulose) (HPC)): 0 of 6

Structure (SMILES): COC1C(C)OC(OC2CC(C)(O)Cc3cc4c(c(O)c32)C(=O)c2c(O)cc3c(c2C4=O)OC2OC3(C)C(OC(C)=O)C(N(C)C)C2OC(C)=O)C(OC)C1(C)OC (centres undefined)
- T/C (dose: 3.12 mg/kg/injection, schedule: Q04DX003 (ip), vehicle: other): 125 % of control
- T/C (dose: 6.25 mg/kg/injection, schedule: Q04DX003 (ip), vehicle: other): 128 % of control
- T/C (dose: 12.5 mg/kg/injection, schedule: Q04DX003 (ip), vehicle: other): 128 % of control
- T/C (dose: 25.0 mg/kg/injection, schedule: Q04DX003 (ip), vehicle: other): 132 % of control
- T/C (dose: 50.0 mg/kg/injection, schedule: Q04DX003 (ip), vehicle: other): 141 % of control [5 of 6 alive]

Structure (SMILES): C=C(C)C1=CC(=O)C(C)(C)O1
- T/C [1]: 128 % of control

Structure (SMILES): CCCCCCCCCCCC1=C(O)C(=O)C(I)=C(O)C1=O
- survivor count [5]: 1 of 6
- survivor count [3]: 0 of 6

Structure (SMILES): N#Cc1c(C(=O)NN)cc(-c2ccc3ccccc3c2)[nH]c1=O
- survivor count [3]: 3 of 6

Structure (SMILES): CC1=CC=CC2=NC(=O)CCN12
- survivor count (dose: 400.0 mg/kg/injection, schedule: Q04DX003 (ip), vehicle: saline with Tween-80): 4 of 6

Structure (SMILES): COc1cccc2c1C(=O)c1c(O)c3c(c(O)c1C2=O)[C@@H](OC)[C@@](O)(C(C)=O)C[C@@H]3OC1CC(N)C(O)C(C)O1 (some centres undefined)
- T/C (dose: 12.5 mg/kg/injection, schedule: Q04DX003 (ip), vehicle: saline): 133 % of control [4 of 6 alive]
- survivor count (dose: 25.0 mg/kg/injection, schedule: Q04DX003 (ip), vehicle: saline): 1 of 6
- survivor count (dose: 50.0 mg/kg/injection, schedule: Q04DX003 (ip), vehicle: saline): 0 of 6

From PubChem BioAssay AID330 (DTP/NCI, 2004)
